According to the supplement of paper PMC11150407:
About 45 (2%) of roughly 3,000 compounds showed an effect of 50% or more. The list shows a part of the results.

What follows are molecules tested on MOLM1 and UCSD/AML1 (averaged) (assay: cell viability relative to DMSO control (POC); higher = less growth inhibition). Settings: 1 µM; 72 h.
Procedure: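 Primary viability screen in the 3q26 EVI1-high AML cell lines MOLM1 and UCSD/AML1, compounds at 1 uM for 72 h. ATP CellTiter-Glo read-out given as percent viable over DMSO control (POC), averaged over duplicates. This mapping covers the TimTec NDL-3000 natural derivative library, whose compounds are identified by TimTec catalogue codes (ST...).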
Molecule `COc1cc(-c2nc(CSc3nc4c(=O)[nH]c(C)nc4n3C)c(C)o2)cc(OC)c1OC` has a cell viability of 99.8%. `COc1cc(C(=O)c2nccc3cc(OC)c(OC)cc23)c([N+](=O)[O-])cc1OC` showed a cell viability of 98.4%. `CCCCCCc1ccc(O)cc1O` gave a cell viability of 90.1%. `COc1ccc(/C=C/C(=O)Nc2ccccc2)cc1` gave a cell viability of 102%. Molecule `NC(=O)Cc1ccc(O)cc1` has a cell viability of 98%. Work on `O=c1cc(-c2ccc(Br)cc2)oc2ccc(Br)cc12` yielded a cell viability of 94.2%. For `Cc1ccc(C(=O)N/C(=C\c2ccco2)C(=O)NCCc2c(C)[nH]c3ccccc23)cc1`, the cell viability was 99.6%. In the case of `CCN1C=C(C(=O)OC)C(c2cc(OC)c(OC)c(OC)c2)C(C(=O)OC)=C1`, the cell viability is reported as 113%. `COc1cc(C2NC(=O)NC(C)=C2C(=O)OC2CCCCCCC2)cc(Cl)c1O` (stereo not given) showed a cell viability of 71%. With `CN1/C(=C\C(=O)Nc2ccc(Cl)cc2)c2ccccc2CC1(C)C` the cell viability was 85.5%. `CCOc1ccccc1NC(=O)c1ccc2c(c1)OCO2` showed a cell viability of 103%. In the case of `COc1ccc(S(=O)(=O)N2Cc3ccccc3CC2C(=O)NCc2ccccc2)cc1` (stereo not given), the cell viability is reported as 103%. `COc1cccc(/C=C/C(=O)c2ccc3c(c2)OCO3)c1` gave a cell viability of 96.7%. In the case of `CCOCCOC(=O)C1=C(C)NC2=C(C(=O)CCC2)C1c1cc(Cl)c(O)c(OC)c1` (stereo not given), the cell viability is reported as 111%. Molecule `CNC(=O)c1ccc(OC)c(OC)c1` has a cell viability of 105%. In the case of `COc1cc(OC)cc(C(=O)N2CCN(S(=O)(=O)c3ccc4ccccc4c3)CC2)c1`, the cell viability is reported as 102%. `O=C(Oc1ccc2oc(-c3ccco3)cc(=O)c2c1)c1cccnc1` showed a cell viability of 101%. In the case of `O=C(Cn1c(=O)cc(C(=O)N2CCc3ccccc3C2)c2ccccc21)Nc1ccc(F)cc1`, the cell viability is reported as 117%. Molecule `COc1cc2nc(SCc3nc4ccccc4[nH]3)[nH]c2cc1OC` has a cell viability of 98.9%. `COc1ccc(C=O)cc1COc1ccc2c(c1)CCC2` was tested, and the cell viability was 47.2%. In the case of `Cc1cc(C)cc(OCC(=O)N/N=C/c2ccc3c(c2)OCO3)c1`, the cell viability is reported as 97.3%. Work on `COc1ccc(C(=O)C2[C@H]3C4COC(O4)C(=O)[C@H]3[C@@H]3c4ccccc4C=CN23)cc1` (stereo not given in full) yielded a cell viability of 100%. Work on `CC(=O)[C@H]1CC[C@H]2[C@@H]3C[C@H](C)C4=CC(=O)CC[C@]4(C)[C@H]3[C@@H](O)C[C@]12C` yielded a cell viability of 77.3%. In the case of `CNC(=O)c1cc(=O)n(CC(=O)Nc2cccc(F)c2)c2ccccc12`, the cell viability is reported as 103%. `CC(C)(C)C(=O)CSc1ncnc2c1ncn2CC(=O)C(C)(C)C` showed a cell viability of 99.5%. `COc1ccc(C2NC(C(=O)O)Cc3c2[nH]c2ccccc32)cc1OC` (stereo not given) showed a cell viability of 109%. Molecule `O=C(O)/C(=C/c1ccccc1)c1ccccc1` has a cell viability of 105%. With `Cc1cc(=O)[nH]c(SCC(=O)Nc2cccc(C)c2C)n1` the cell viability was 114%. With `COc1cc2c(cc1OC)CN(C(=O)c1sc3nc(C4CC4)cc(C(F)(F)F)c3c1N)CC2` the cell viability was 99.6%. With `CCOc1ccc2oc(=O)cc(CN3CCN(CC(=O)N(C)c4ccccc4)CC3)c2c1` the cell viability was 99.1%. In the case of `Cn1c(C(=O)Nc2cccc(Cl)c2Cl)cc(=O)n(C)c1=O`, the cell viability is reported as 95.9%. `Cc1ccc2c(CN3CCN(Cc4nc(-c5ccc(Cl)cc5)oc4C)CC3)cc(=O)oc2c1` was tested, and the cell viability was 98.5%. Molecule `Cc1nc2c(nc(SCc3nc(-c4ccc(OC(C)C)cc4)oc3C)n2C)c(=O)[nH]1` has a cell viability of 99%. For `COC(=O)C1=C(N)Oc2c(oc(CO)cc2=O)C1c1ccccc1[N+](=O)[O-]` (stereo not given), the cell viability was 104%. `Nc1c(Br)c(=O)[nH]c(=O)n1-c1ccccc1Cl` showed a cell viability of 112%. Work on `CC(=O)O/C(=C\c1cn(C(C)=O)c2ccccc12)C(=O)O` yielded a cell viability of 87.4%. Molecule `CCc1ccc(NC(=O)CSc2nc3ccccc3c(=O)[nH]2)cc1` has a cell viability of 97%. `COc1cc(-c2nn(CNc3ccc(F)cc3)c(=S)o2)cc(OC)c1OC` showed a cell viability of 91.1%. In the case of `O=C(NC(Cc1ccccc1)C(=O)O)OCc1ccccc1` (stereo not given), the cell viability is reported as 101%. `N#CC1=C(N)Oc2c(oc(CO)cc2=O)C1c1cccc2ccccc12` (stereo not given) was tested, and the cell viability was 108%. `COc1cc(NC(=O)Cn2c(=O)cc(C(=O)N3CCOCC3)c3ccccc32)cc(OC)c1` gave a cell viability of 95.4%. For `Cn1c(=O)[nH]c(=O)c2c1nc(N/N=C/c1cccc([N+](=O)[O-])c1)n2Cc1ccccc1Cl`, the cell viability was 97.5%. With `Nc1c(C(=O)N2CCC[C@H]2C(=O)O)sc2nc3c(cc12)CCCC3` the cell viability was 91.8%. Work on `O=C(Nc1ccc(I)cc1)C(Cc1c[nH]c2ccccc12)NC(=O)C(c1ccccc1)c1ccccc1` (stereo not given) yielded a cell viability of 93%. With `CCN(CC)C(=O)c1cc(=O)n(CC(=O)Nc2cccc(Br)c2)c2ccccc12` the cell viability was 98.6%. For `CN(C)S(=O)(=O)Nc1ccc(S(=O)(=O)N2CCc3ccccc3C2)cc1`, the cell viability was 98.2%. In the case of `COc1cc(/C=N/NC(=O)CCC(=O)Nc2ccccc2C)cc(OC)c1OC`, the cell viability is reported as 91.6%. Molecule `Cn1c(SCC(=O)Nc2cccc(F)c2)nc2c(=O)[nH]cnc21` has a cell viability of 86.7%. In the case of `Cc1nc2c(nc(SCC(=O)Nc3ccc(C)c(F)c3)n2C)c(=O)[nH]1`, the cell viability is reported as 103%. `CCn1c(SCc2ccc(C)cc2)nc2c(=O)[nH]cnc21` was tested, and the cell viability was 90.8%. With `Cc1ccc(NCCC(=O)c2ccc3c(c2)OCO3)cc1C` the cell viability was 95.1%. Work on `O=C(NCCc1c[nH]c2ccccc12)C1CC1(c1ccccc1)c1ccccc1` (stereo not given) yielded a cell viability of 105%. In the case of `COc1ccc(CCNC(=O)CCl)cc1OC`, the cell viability is reported as 103%. Work on `CNc1nc(C(N)=O)c(NC(=O)c2ccc(OC)c(OC)c2)s1` yielded a cell viability of 90.9%. With `COCC(=O)c1c(O)cc(OC)cc1OC` the cell viability was 100%. Work on `Cc1ccc(C)c(CSc2nc3c(=O)[nH]cnc3n2C)c1` yielded a cell viability of 95%. `COc1ccc(C(=O)CCNc2ccccc2)cc1OC` gave a cell viability of 97.5%. `CC(NC(=O)CSc1nc2ccccc2c(=O)[nH]1)c1ccccc1` (stereo not given) showed a cell viability of 103%. `C=CCn1c(SCc2cc(=O)[nH]c3ccccc23)nnc1-c1cccc(Br)c1` gave a cell viability of 101%. For `O=C(O)c1nc2ccccc2[nH]c1=O`, the cell viability was 98.1%. In the case of `Cn1c2c(c(=O)n(C)c1=O)C(C(F)(F)F)(C(F)(F)F)N=C(Cc1ccccc1)N2`, the cell viability is reported as 91.5%. Molecule `COc1ccc(/C=C/C(=O)N2CCc3c([nH]c4ccccc34)C2c2ccc(OC)cc2)cc1` (stereo not given) has a cell viability of 90.2%. In the case of `COc1ccc(C(=O)CCNc2ccc(C(=O)O)cc2)cc1OC`, the cell viability is reported as 109%. Molecule `COc1ccc(C(=O)NCc2ccccc2)cc1OC` has a cell viability of 94.4%. With `Cn1c(=O)[nH]c(=O)c2c1nc(NCCO)n2CC(O)COc1ccc(Cl)cc1` (stereo not given) the cell viability was 116%. Work on `COC(=O)C1=C(C)NC2=C(C(=O)CCC2)C1c1ccc(O)c(OC)c1` (stereo not given) yielded a cell viability of 92.4%. In the case of `Cc1cc2oc(-c3ccc(Br)cc3)cc(=O)c2cc1Cl`, the cell viability is reported as 114%. For `Cc1cc(C(=O)NC(Cc2ccccc2)C(=O)O)c(C)o1` (stereo not given), the cell viability was 94.5%. `COc1cc(CCC(C)=O)ccc1O` gave a cell viability of 93.8%. `CCOC(=O)c1ccccc1NC(=O)C(C)C` showed a cell viability of 103%. Work on `CCc1cccc(NC(=O)CSc2nc3c(=O)[nH]cnc3n2C)c1` yielded a cell viability of 101%. Molecule `COc1ccc2[nH]c(C)c(CCNC(=O)c3cc4ccccc4oc3=O)c2c1` has a cell viability of 94.3%. `O=C(CSc1nc2ccccc2c(=O)[nH]1)Nc1cccc(Br)c1` was tested, and the cell viability was 90.3%. Molecule `CC(C)c1ccc(NC(=O)Cn2c(=O)cc(C(=O)N3CCc4ccccc4C3)c3ccccc32)cc1` has a cell viability of 97.1%. `COC(=O)C1=CNC=C(C(=O)OC)C1c1cc(OC)c(OC)c(OC)c1` showed a cell viability of 110%. `c1ccc2c(NC3CCCC3)nc(N3CCNCC3)nc2c1` was tested, and the cell viability was 98.7%. With `COCCOC(=O)c1c(C)n(CCCNc2ccc([N+](=O)[O-])cc2)c2ccc(O)cc12` the cell viability was 96%. `Cn1c(SCC(=O)O)nc2c1c(=O)[nH]c(=O)n2C` gave a cell viability of 101%. `N#Cc1ccccc1/C=C/C(=O)O` showed a cell viability of 99.1%. Work on `CCc1cccc(C)c1NC(=O)Cn1c(=O)cc(C(=O)N2CCc3ccccc3C2)c2ccccc21` yielded a cell viability of 95.5%. `CCOC(=O)c1c(CSCc2ccccc2)n(-c2ccccc2)c2cc(Br)c(OC)cc12` gave a cell viability of 110%. In the case of `Cc1[nH]c2ccccc2c1CCNC(N)=O`, the cell viability is reported as 98.3%. Work on `O=C(COC(=O)/C=C/c1ccccc1)Nc1ccccc1` yielded a cell viability of 107%. `COC(=O)CNC(=O)c1cccc(Cl)c1` showed a cell viability of 95.3%. Molecule `CCN(CC)c1ccc(C2C3CCCCC3(O)CCN2C(=O)/C=C/c2ccc(OC)c(OC)c2)cc1` (stereo not given) has a cell viability of 102%. With `CNC(=S)NNC(=O)c1ccc(OC)c(OC)c1` the cell viability was 102%. `CCOC(=O)C1Cc2c([nH]c3ccccc23)C(c2ccc(OC)c(CN3CCN(c4ccccc4OC)CC3)c2)N1` (stereo not given) was tested, and the cell viability was 102%. With `COC(=O)CNC(=O)c1ccc([N+](=O)[O-])cc1Cl` the cell viability was 91.1%. Work on `COc1ccc(C2c3[nH]c4ccccc4c3CCN2Cc2ccccc2F)cc1` (stereo not given) yielded a cell viability of 98%. In the case of `COc1cc(/C=N\Nc2nc(-c3cccc([N+](=O)[O-])c3)cs2)cc(OC)c1O`, the cell viability is reported as 66.4%. With `CC(C)CCCC(C)C1CCC2C3CC=C4CC(OC(=O)c5cccc([N+](=O)[O-])c5)CCC4(C)C3CCC12C` (stereo not given) the cell viability was 94.3%. Work on `Cc1ccc(-n2c(SCC(=O)Nc3ccc(C)c(F)c3)nc3c(=O)[nH]cnc32)cc1` yielded a cell viability of 103%. Work on `COc1ccc(C(=O)N2CCN(C(=O)c3ccccc3OC)CC2)cc1OC` yielded a cell viability of 105%. `Cc1cc(C)c(NC(=O)Cn2c(=O)cc(C(=O)N3CCCCC3)c3ccccc32)c(C)c1` gave a cell viability of 99.4%. `OCC1COCC(O)C(O)C(O)C1O` (stereo not given) was tested, and the cell viability was 100%. `O=Cc1ccc(-c2cc(OC(F)(F)F)cc(OC(F)(F)F)c2)o1` gave a cell viability of 102%. In the case of `Cc1cc2c(C(C)C)c(O)c(O)c(C=NC3CCS(=O)(=O)C3)c2c(O)c1-c1c(C)cc2c(C(C)C)c(O)c(O)c(C=NC3CCS(=O)(=O)C3)c2c1O` (stereo not given), the cell viability is reported as 96.1%. `N#Cc1cccc(NC(=O)CSc2nc3ccccc3c(=O)[nH]2)c1` showed a cell viability of 104%. Work on `CCOc1cc(C2C(C#N)=C(N)OC3=C2C(=O)CC(C)(C)C3)cc([N+](=O)[O-])c1O` (stereo not given) yielded a cell viability of 101%. In the case of `Cc1ccc(C)c(NC(=O)CSc2nc3c(=O)[nH]cnc3n2C)c1`, the cell viability is reported as 91.2%. Work on `Cc1cc2occ(C#N)c(=O)c2cc1Cl` yielded a cell viability of 102%. Molecule `COc1cccc(NC(=O)COc2ccc3c4c(c(=O)oc3c2C)CCC4)c1` has a cell viability of 102%. Work on `COc1cc(OC)cc(C(=O)N2CCN(C(=O)c3ccc(F)cc3)CC2)c1` yielded a cell viability of 107%. For `CC(C)Oc1ccccc1C1Nc2ccccc2NC2=C1C(=O)CC(c1ccc(Cl)cc1)C2` (stereo not given), the cell viability was 80.3%. Work on `COc1cc(C2C(C#N)=C(N)Oc3n[nH]c(C)c32)cc(OC)c1O` (stereo not given) yielded a cell viability of 108%.
